Test results: PubChem BioAssay AID687031 (Broad Institute, 2013)
In all, about 1,400 compounds went through this assay and about 50 (4%) were called active.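 How the source made its calls: active means fitted curve reaches 30% CPE protection at or below the top valid dose, with every test run called active; inconclusive means test runs disagree, some active and some not; inactive means every test run inactive, including effects in the wrong direction.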 Some of the results follow. Measured potencies and affinities stand elsewhere.

Assay: antiviral rescue of DENV2-infected BHK-21 cells – cell-based, ATP luminescence, cherry-pick, dose response (AID 687031);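 further: 0% = infected DMSO wells and 100% = uninfected cell wells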
Details: BHK-21 DENV2 CPE protection, 5 d; at 19.5 µM (top of the series) unless noted

CPE protection (higher = active), inactive:
Cc1ccc(C(=O)Nc2ccc(N3CCN(C)CC3)cc2)cc1C -22.4%
C[C@@H]1CN([C@H](C)CO)C(=O)Cc2cc(NC(=O)CCCCCC(=O)Nc3ccccc3N)ccc2O[C@@H]1CN(C)Cc1ccc(Cl)c(Cl)c1 -2.74%
CCOc1cc(/C=N/NC(=O)C(=O)NC2CC2)cc(Br)c1O -15.5%
COc1cccc(CC(=O)OCC(=O)Nc2nnc(-c3ccccc3)o2)c1 -26.5%
CCN(CC)S(=O)(=O)c1ccc(C)c(NC(=O)COc2ccc(Br)cc2Cl)c1 14.4%
NC(=O)C1CCN(CC(O)COc2ccc(-c3ccccc3)cc2)CC1 (configuration not stated) -14%
O=C(c1ccc2nccnc2c1)N1CCN(c2ccccc2)CC1 -31%
COc1ccc(S(=O)(=O)Nc2ccc3c(c2)C(=O)N([C@@H](C)CO)C[C@H](C)[C@H](CN(C)Cc2ccncc2)OCCCC[C@H](C)O3)cc1 40.1%
Cc1ccccc1C1=NC(C(F)(F)F)(C(F)(F)F)c2c(n(-c3ccc(F)cc3)c(=O)[nH]c2=O)N1 11.1%
COc1ccc(C2NC(=O)NC(C)=C2C(=O)Nc2cccc(C)c2C)cc1 (configuration not stated) -19.3%
O=C1NC[C@H](Cc2ccccc2)N(CC2CCN(CCCCc3ccccc3)CC2)C1=O 9.67%
O=C(NC1CC1)c1ccc(NC(=O)C2CCCC2)cc1 10.5%
CC(C)c1ccc(NC(=O)[C@H](NC(=O)[C@@H]2Cc3ccccc3CN2)c2ccccc2)cc1 -3.59%
COc1ccc(C(CCN2CCOCC2)c2c(OC)cc(OC)c3c(C)cc(=O)oc23)cc1 (configuration not stated) 27.1%
CCOC(=O)C1=CN(Cc2cccc(Br)c2)S(=O)(=O)N(C)C1C (configuration not stated) -16.8%
CCS(=O)(=O)Nc1ccc(C(=O)NCCSc2ccccc2)cc1 -3.93%
CC1CC(C)CN(C(=O)COC(=O)c2nccnc2N)C1 (configuration not stated) 8.89%
COc1ccc(C(=O)NCCOc2cccc(Oc3ccccc3)c2)cc1OC -3.52%
CCOc1ccc(/C=N/n2nnnc2N)cc1OCC -4.48%
O=C(NCc1ccncc1)c1cccc(NS(=O)(=O)c2ccc(F)c(F)c2)c1 -16.2%
NC(c1csc(NC(=O)Nc2cccc(Cl)c2)n1)C1CCCCC1 (configuration not stated) -2.28%
CNC[C@@H]1OCCCC[C@H](C)Oc2ccc(NS(=O)(=O)c3c(C)noc3C)cc2C(=O)N([C@@H](C)CO)C[C@@H]1C 4.03%
CCCC/C=C/c1cccc2nncn12 -9.92%
COc1ccccc1NC(=O)CN1CCOCC1 14.9%
CO[C@@H]1CN(C)C(=O)c2ccc(NC(C)=O)cc2OC[C@@H](C)N(S(C)(=O)=O)C[C@H]1C -3.94%
O=C(NCCN1CCCC1)[C@H]1N[C@H]2c3ccc(-c4ccccc4)c(=O)n3C[C@H]2[C@@H]1CO 4.15%
CCCN1Cc2cccc(C(=O)Nc3ccc4c(c3)OCCO4)c2C1=O -8.78%
COc1ccccc1N1CCN(C(=O)c2cc(S(=O)(=O)N3CCCCC3)ccc2C)CC1 -12.5%
CCOc1ccc(NC(=O)CN(C)C(=O)c2ccccc2OCc2c(C)noc2C)cc1OCC 17.7%
CCOC(=O)[C@]12CCCC=C1N(Cc1ccccc1)C(=O)[C@H](CC(=O)NCc1cccs1)C2 -0.078% [at 10 µM]
Oc1ccc(Cl)cc1CNCc1ccc(F)cc1 31.5%
COc1ccc2c3c([nH]c2c1)[C@@H](CO)N(C(=O)C1CCOCC1)CC31CN(C)C1 16.4%
COc1ccc(OC)c(NC(=O)NNS(=O)(=O)c2ccc(C)cc2C)c1 -12.8%
C[C@H]1CCCCO[C@H](CN(C)C(=O)Nc2ccc(C(F)(F)F)cc2)[C@@H](C)CN([C@@H](C)CO)C(=O)c2cc(NC(=O)C3CCCCC3)ccc2O1 -24.3%
CC(=O)NC(c1cccc(F)c1)c1nc(-c2ccc(N(C)C)cc2)cs1 (configuration not stated) 9.42%
Cc1c(C)c2cc(Cl)c(OCC(=O)NCCCN3CCCC3=O)cc2oc1=O 30.8%
CC(C)Cc1ccc(C(C)C(N)=NCCc2ccccc2)cc1 (configuration not stated) 21.7%
COc1ccc(N(C(=O)c2cccnc2)S(=O)(=O)c2ccc(OC)c(OC)c2)cc1 -13.9%
CC(C)C(NS(=O)(=O)c1ccc2c(c1)C(C)(C)C(=O)N2C)C(=O)NCc1ccccc1Cl (configuration not stated) -10.8%
COc1ccc(OC)c(S(=O)(=O)N2CCN(c3c(C)cccc3C)CC2)c1 -28.2%
CCCCNC(=O)C[C@@H]1C[C@@]2(C(=O)OC)CCCCC=C2N(CCC2=CCCCC2)C1=O -16.8%
C=CCC(NC(=O)c1ccc(C#N)cc1)C(=O)NCCC (configuration not stated) -14%
C[C@]1(C(=O)NCCc2c[nH]c3ccccc23)C=C[C@@H](Cc2ccccc2)N1C(=O)c1ccccc1 -14.9%
CCC(c1nnnn1-c1c(C)cccc1C)N1CCN(C/C=C/c2ccccc2)CC1 (configuration not stated) -27%
COc1ccc(C(=O)N2CCNC(=O)C2CC(=O)Nc2cccc(Cl)c2Cl)cc1 (configuration not stated) 7.23%
CN(C)CC(=O)Nc1ccc2c(c1)[C@H]1C[C@H](CC(=O)NC3CCCCC3)O[C@@H](CO)[C@H]1O2 0.976%
COc1cccc(S(=O)(=O)Nc2ccc3c(c2)C(=O)N(C)C[C@H](OC)[C@H](C)CN[C@@H](C)CO3)c1 20.5%
CC#CCN1C(=O)N[C@@H](c2ccccc2)C(C(=O)OC)=C1C -2.29%
Cc1ccc(NCC(=O)N/N=C/c2cccc(Br)c2)cc1 7.97%
Cc1ccc(NC(=O)C2(c3cccs3)CCOCC2)cc1C 16.6%
O=C(NC1CCCC1)c1nc(-c2c(F)cccc2F)oc1-c1ccccc1 -27.9%
CCc1nnc(N2C(=O)c3ccccc3C2(O)c2ccccc2)s1 (configuration not stated) 12.7%
O=C(NC1CCCCC1)[C@@H]1[C@@H](CO)[C@@H]2Cn3c(cccc3=O)[C@H]1N2Cc1cccnc1 7.21%
COc1ccc(C(=O)N2CCC2(C)C(=O)O)cc1F (configuration not stated) 3.96%
c1ccc(COCCCn2cc(-c3ccccc3)nn2)cc1 -2.66%
CN(C)S(=O)(=O)c1cccc(C(=O)Nc2ccccc2C(=O)NC2CC2)c1 20.9%
Cc1ccccc1OCC(=O)OCC(=O)NCCNC(=O)COC(=O)COc1ccccc1C 7.36%
COc1ccccc1N1CCN(S(=O)(=O)CCNC(=O)CCc2ccccc2)CC1 5.74%
CCN(C)C1CN(Cc2cn(Cc3ccccc3)nn2)S(=O)(=O)C1 (configuration not stated) 4.79%
CCOC(=O)N1CCC(NCCNC(=O)c2ccc(F)c(F)c2)CC1 -26.1%
CCCN=C1N(CC)C[C@@H]2[C@@H]3C(=O)N(C)C(=O)[C@@H]3[C@](CC)(C(=O)OC)N12 -8.72%
C[C@H](CO)N1C[C@H](C)[C@H](CN(C)C(=O)Nc2cccc3ccccc23)OCCCC[C@H](C)Oc2ccc(NS(=O)(=O)c3cn(C)cn3)cc2C1=O 27.9%
COC(=O)c1ccc2nc(C3CCCCC3)c(Cc3ccccc3OC)n2c1 -7.16%
COc1cc(-c2cnc3c(NC(C)=O)cc(-c4ccccc4CN(C)C)cn23)cc(OC)c1OC -14.2%
CCn1c2ccccc2c2cc(NC(=O)COC(=O)c3cc(OC)c(OC)cc3OC)ccc21 7.07%
O=C(NCCCN1CCOCC1)C1CCC(=O)N1CCc1ccccc1 (configuration not stated) 2.19%
CN(C)CCCNC(=O)OC1CC2CC1[C@H]1CCCCN1C2=O (some centres not stated) -6.8%
O=C(O)c1ccccc1C(=O)NCc1c(Cl)cccc1Sc1ccc(Cl)cc1 -0.361%
O=C(O)c1cc(=O)c2c(OCC(O)COc3cccc4oc(C(=O)O)cc(=O)c34)cccc2o1 2.33%
NCc1csc(NC(=O)Nc2cccc(Cl)c2)n1 4.73%
CCCN1CCC(=O)N([C@H](CSc2ccccc2)Cc2ccccc2)CC1 2.27%
CC(Oc1ccc2ccc(=O)oc2c1)C(=O)NC(Cc1c[nH]c2ccc(O)cc12)C(=O)O (configuration not stated) 1.32%
COc1ccc2ccccc2c1/C=N/NC(=O)c1ccccc1F 3.87%
COc1cc(CCCN2CCNC[C@@H]2c2ccccc2)cc(OC)c1OC 12.2%
COc1ccccc1CNC(=O)CCCN1C(=O)NC2(CCCC2)C1=O 15.5%
Cc1sc2ncnc(N3CCC(C(=O)Nc4ccc(Cl)cc4Cl)CC3)c2c1C -2.81%
Cc1cc(OCC(=O)NC(Cc2c[nH]c3ccc(O)cc23)C(=O)O)c2c(C)c(C)c(=O)oc2c1 (configuration not stated) 9.36%
O=S(=O)(c1ccc(=S)[nH]c1)N1CCN(Cc2ccccc2)CC1 17.7%
Cc1noc(C)c1S(=O)(=O)N(C)C[C@H]1OCCCC[C@@H](C)Oc2ccc(NC(=O)Nc3ccc4c(c3)OCO4)cc2C(=O)N([C@@H](C)CO)C[C@H]1C 25.4%
Cc1ccc(NS(=O)(=O)c2ccc(C(=O)NCCCN3CCCC3=O)cc2)cc1 0.056%
CC(=O)N1CC2(C1)[C@H](c1ccc(-c3ccc(C#N)cc3)cc1)[C@@H](CO)N2C(=O)C1CC1 20.5% [at 21 µM]
C[C@@]12C(=O)N(CCc3c[nH]c4ccccc34)CC(=O)N1[C@H]1c3ccccc3OC[C@@H]1[C@@H]2c1ccccc1 -6.92%

Part of the list above in order of heavy-atom count, high to low.
CPE protection (higher = active), inactive:
COc1ccccc1N1CCN(C(=O)c2cc(S(=O)(=O)N3CCCCC3)ccc2C)CC1 -12.5%
COc1ccc(C(=O)NCCOc2cccc(Oc3ccccc3)c2)cc1OC -3.52%
Cc1sc2ncnc(N3CCC(C(=O)Nc4ccc(Cl)cc4Cl)CC3)c2c1C -2.81%
COc1ccc2ccccc2c1/C=N/NC(=O)c1ccccc1F 3.87%
CCOc1ccc(/C=N/n2nnnc2N)cc1OCC -4.48%
NCc1csc(NC(=O)Nc2cccc(Cl)c2)n1 4.73%

Compounds listed so far that contain a cyano group:
CPE protection (higher = active), inactive:
C=CCC(NC(=O)c1ccc(C#N)cc1)C(=O)NCCC (configuration not stated) -14%
CC(=O)N1CC2(C1)[C@H](c1ccc(-c3ccc(C#N)cc3)cc1)[C@@H](CO)N2C(=O)C1CC1 20.5% [at 21 µM]
